Data published in PMC6166740.

Chains of the proteins cited; added tags and fusions are not shown. Residues count along the entry.
UniProt P55884: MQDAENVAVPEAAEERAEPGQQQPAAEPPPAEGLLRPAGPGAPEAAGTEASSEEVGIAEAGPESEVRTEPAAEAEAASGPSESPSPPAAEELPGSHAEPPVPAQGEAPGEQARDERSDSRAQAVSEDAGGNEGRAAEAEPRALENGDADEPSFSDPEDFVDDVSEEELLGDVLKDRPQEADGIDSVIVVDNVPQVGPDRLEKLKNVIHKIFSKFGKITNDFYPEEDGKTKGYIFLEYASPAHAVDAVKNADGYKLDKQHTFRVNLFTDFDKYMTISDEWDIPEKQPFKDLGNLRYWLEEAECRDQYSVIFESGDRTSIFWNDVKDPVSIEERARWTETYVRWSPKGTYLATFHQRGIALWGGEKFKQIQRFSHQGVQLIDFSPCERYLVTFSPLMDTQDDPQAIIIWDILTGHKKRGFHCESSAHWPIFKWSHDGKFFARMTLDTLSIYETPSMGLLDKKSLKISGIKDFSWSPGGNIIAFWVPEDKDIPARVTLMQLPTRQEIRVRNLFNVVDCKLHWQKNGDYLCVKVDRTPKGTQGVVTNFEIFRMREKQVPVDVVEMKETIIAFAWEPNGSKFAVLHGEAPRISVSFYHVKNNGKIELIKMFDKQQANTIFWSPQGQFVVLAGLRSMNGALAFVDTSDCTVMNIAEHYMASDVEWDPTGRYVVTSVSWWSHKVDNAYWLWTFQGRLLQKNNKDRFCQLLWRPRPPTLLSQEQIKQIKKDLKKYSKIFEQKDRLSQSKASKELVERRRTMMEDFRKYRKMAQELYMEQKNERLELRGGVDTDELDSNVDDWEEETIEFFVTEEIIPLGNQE
UniProt Q17R60, residues 21-797: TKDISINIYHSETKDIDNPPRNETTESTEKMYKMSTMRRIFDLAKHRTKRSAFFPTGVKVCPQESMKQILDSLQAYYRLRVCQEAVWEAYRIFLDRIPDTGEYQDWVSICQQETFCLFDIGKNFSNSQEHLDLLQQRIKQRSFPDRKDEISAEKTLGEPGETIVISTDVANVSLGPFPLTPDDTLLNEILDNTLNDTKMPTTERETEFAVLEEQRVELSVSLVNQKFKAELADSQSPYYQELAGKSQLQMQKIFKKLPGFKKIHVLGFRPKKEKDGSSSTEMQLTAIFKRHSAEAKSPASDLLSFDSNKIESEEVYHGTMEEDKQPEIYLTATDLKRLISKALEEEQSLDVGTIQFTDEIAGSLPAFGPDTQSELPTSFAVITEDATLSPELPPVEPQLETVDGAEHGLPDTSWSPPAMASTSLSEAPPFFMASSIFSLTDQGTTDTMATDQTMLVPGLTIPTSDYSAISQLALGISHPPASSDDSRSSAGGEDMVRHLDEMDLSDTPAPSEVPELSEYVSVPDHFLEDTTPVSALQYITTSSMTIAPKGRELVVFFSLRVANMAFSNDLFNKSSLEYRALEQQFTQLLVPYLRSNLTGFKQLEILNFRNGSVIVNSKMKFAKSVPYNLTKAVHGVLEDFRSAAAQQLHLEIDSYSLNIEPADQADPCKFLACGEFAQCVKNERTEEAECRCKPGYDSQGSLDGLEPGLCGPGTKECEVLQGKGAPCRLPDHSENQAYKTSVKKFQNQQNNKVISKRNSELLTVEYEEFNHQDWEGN
UniProt Q9HC98: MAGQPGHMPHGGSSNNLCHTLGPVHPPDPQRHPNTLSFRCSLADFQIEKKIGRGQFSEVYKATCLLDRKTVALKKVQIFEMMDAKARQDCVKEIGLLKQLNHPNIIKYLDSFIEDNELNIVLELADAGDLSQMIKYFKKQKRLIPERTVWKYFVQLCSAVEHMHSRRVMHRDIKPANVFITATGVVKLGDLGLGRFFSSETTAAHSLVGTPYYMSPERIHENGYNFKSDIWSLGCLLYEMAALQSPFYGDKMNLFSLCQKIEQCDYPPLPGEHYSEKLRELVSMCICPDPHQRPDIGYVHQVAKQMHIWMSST

T1: FLAG-tagged NEK8 (NIMA-related kinase 8) (UniProt Q86SG6)
T1 sequence: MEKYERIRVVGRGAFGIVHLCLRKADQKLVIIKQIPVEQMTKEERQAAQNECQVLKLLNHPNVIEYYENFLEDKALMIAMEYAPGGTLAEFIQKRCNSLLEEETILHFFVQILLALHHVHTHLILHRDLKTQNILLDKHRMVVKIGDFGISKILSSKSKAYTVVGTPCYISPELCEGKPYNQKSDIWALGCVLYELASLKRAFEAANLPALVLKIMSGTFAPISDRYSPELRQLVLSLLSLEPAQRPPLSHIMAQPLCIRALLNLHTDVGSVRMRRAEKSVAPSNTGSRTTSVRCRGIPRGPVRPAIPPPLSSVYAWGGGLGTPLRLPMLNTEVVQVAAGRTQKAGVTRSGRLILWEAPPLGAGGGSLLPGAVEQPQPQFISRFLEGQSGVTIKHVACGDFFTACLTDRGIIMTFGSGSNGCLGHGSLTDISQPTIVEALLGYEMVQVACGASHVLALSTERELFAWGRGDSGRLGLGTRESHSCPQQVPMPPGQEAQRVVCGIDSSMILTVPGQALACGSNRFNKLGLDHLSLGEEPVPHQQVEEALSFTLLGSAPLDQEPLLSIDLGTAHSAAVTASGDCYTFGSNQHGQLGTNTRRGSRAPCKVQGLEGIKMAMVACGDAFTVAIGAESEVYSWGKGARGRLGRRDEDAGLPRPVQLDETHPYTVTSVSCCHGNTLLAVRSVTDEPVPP

T2: FLAG-tagged NME3 (NME/NM23 nucleoside-diphosphate kinase 3), wild type (human) (UniProt Q13232)
T2 sequence: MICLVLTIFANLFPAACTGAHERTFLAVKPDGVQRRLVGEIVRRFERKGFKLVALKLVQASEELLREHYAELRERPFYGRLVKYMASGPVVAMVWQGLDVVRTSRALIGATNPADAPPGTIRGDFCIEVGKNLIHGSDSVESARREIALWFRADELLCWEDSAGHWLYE


Legend:
[1] = biological target: T1, FLAG-tagged NEK8 (NIMA-related kinase 8); assay: affinity purification with mass spectrometry; NEK8 as bait in an affinity purification screen; FLAG immunoprecipitation, elution with FLAG peptide, SDS gel, in-gel trypsin digestion, LTQ Orbitrap XL
[2] = biological target: T2, FLAG-tagged NME3 (NME/NM23 nucleoside-diphosphate kinase 3), wild type (human); assay: affinity purification with mass spectrometry; FLAG-tagged NME3 as bait; FLAG immunoprecipitation, elution with FLAG peptide, SDS gel, in-gel trypsin digestion, LTQ Orbitrap XL

Molecule | binding [1] | binding [2]
EIF3B, prey found in the NEK8 affinity purification screen (from UniProt P55884 1-814) | binds | –
IMPG1, prey found in the NEK8 affinity purification screen (from UniProt Q17R60 21-797) | binds | –
NEK6, prey found in the FLAG-NME3 interaction screen (from UniProt Q9HC98 1-313) (enzyme) | – | binds
DZIP1, prey found in the NEK8 affinity purification screen (protein, UniProt Q86YF9 1-867) MQAEAADWFSSMPFQKHVYYPLASGPEGPDVAVAAAAAGAASMACAPPSAASGPLPFFQFRPRLESVDWRRLSAIDVDKVAGAVDVLTLQENIMNITFCKLEDEKCPHCQSGVDPVLLKLIRLAQFTIEYLLHSQEFLTSQLHTLEERLRLSHCDGEQSKKLLTKQAGEIKTLKEECKRRKKMISTQQLMIEAKANYYQCHFCDKAFMNQAFLQSHIQRRHTEENSHFEYQKNAQIEKLRSEIVVLKEELQLTRSELEAAHHASAVRFSKEYEMQKTKEEDFLKLFDRWKEEEKEKLVDEMEKVKEMFMKEFKELTSKNSALEYQLSEIQKSNMQIKSNIGTLKDAHEFKEDRSPYPQDFHNVMQLLDSQESKWTARVQAIHQEHKKEKGRLLSHIEKLRTSMIDDLNASNVFYKKRIEELGQRLQEQNELIITQRQQIKDFTCNPLNSISEPKGNPLAWQAFESQPAAPAVPMNAPALHTLETKSSLPMVHEQAFSSHILEPIEELSEEEKGRENEQKLNNNKMHLRKALKSNSSLTKGLRTMVEQNLMEKLETLGINADIRGISSDQLHRVLKSVESERHKQEREIPNFHQIREFLEHQVSCKIEEKALLSSDQCSVSQMDTLSTGEVPKMIQLPSKNRQLIRQKAVSTDRTSVPKIKKNVMEDPFPRKSSTITTPPFSSEEEQEDDDLIRAYASPGPLPVPPPQNKGSFGKNTVKSDADGTEGSEIEDTDDSPKPAGVAVKTPTEKVEKMFPHRKNVNKPVGGTNVPEMFIKKEELQELKCADVEDEDWDISSLEEEISLGKKSGKEQKEPPPAKNEPHFAHVLNAWGAFNPKGPKGEGLQENESSTLKSSLVTVTDWSDTSDV | binds | –
NME3, prey found in the NEK8 affinity purification screen (enzyme, UniProt Q13232 1-169) MICLVLTIFANLFPAACTGAHERTFLAVKPDGVQRRLVGEIVRRFERKGFKLVALKLVQASEELLREHYAELRERPFYGRLVKYMASGPVVAMVWQGLDVVRTSRALIGATNPADAPPGTIRGDFCIEVGKNLIHGSDSVESARREIALWFRADELLCWEDSAGHWLYE | binds | –

Results are given in words; binding and its absence hold for the method and conditions named. In cells and extracts the contact can be indirect. Here binding means that the protein was enriched with, or labelled near, the bait; the list need not be complete. Tags and fused reporters may be left off the sequences shown.
